Assay results taken from PubChem BioAssay AID485298 (National Center for Advancing Translational Sciences (NCATS), 2010).
About 740 (0.23%) of roughly 320,000 compounds were called active. Inconclusive results, whose numbers are uncertain, are shown with a selection of clear calls. Calls come from the whole dose curve; as a rule, active = well fitted activation curve with a large enough effect; inconclusive = small, poorly fitted or top-dose-only effect; inactive = no such curve, though single readings can be large or run the other way. A potency beside an inconclusive call is a rough fit, not a confirmed value.

assay: qHTS Assay for Small Molecule Inhibitors of Mitochondrial Division or Activators of Mitochondrial Fusion; note: nearly all actives have a fitted effect of over 45% in size; conditions: S. cerevisiae fusion-defective mutant growth rescue, CellTiterGlo 48 h; series mostly up to 46.1 µM
Procedure, shortened: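 Luminescent cell viability in 1536-well qHTS format served as the measure of rescued growth in ts fusion-mutant S. cerevisiae cultured on non-fermentable YPEG for 48 hours at 37C.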
Potency is the fitted concentration of half-maximal effect.

SMILES | Potency
Cc1ccc(C(=O)N2CCC(C(=O)NCc3cccnc3)CC2)cc1 | inconclusive: 5.62 µM [activator, single point]
Cc1ccc(Nc2nc(Cl)nc(NC3CCCCC3)n2)cc1 | inconclusive: 4.47 µM [activator, partial curve]
O=S(=O)(Nc1ccc(-c2nnc(SCc3ccc(Cl)cc3)o2)cc1)c1ccccc1 | inconclusive: 14.1 µM [activator, partial curve]
Cc1ccccc1NC(=O)/C=C1\SC(=O)NC1=O | inconclusive: 10 µM [activator, partial curve]
COc1ccc(C(=O)CC(Nc2ccc([N+](=O)[O-])cc2)c2ccc(Cl)cc2)cc1 (stereo not drawn) | inconclusive: 10 µM [activator, partial curve]
COc1ccc(N2CCN(C(=O)c3cn(Cc4ccccc4)nc3-c3cccnc3)CC2)cc1 | inactive
Cn1c(CNC(=O)CCNC(=O)c2ccc(F)c(F)c2)cc(=O)n(C)c1=O | inconclusive: 2.51 µM [activator, full curve, poor fit]
COc1ccc(C(=O)O/N=C(\N)c2cccc(C)c2)cc1OC | inconclusive: 35.5 µM [activator, partial curve, poor fit]
Cc1ccc(C(=O)n2nc(-n3cccc3)c3c(C)cc(C)nc32)cc1 | inconclusive: 11.2 µM [activator, partial curve]
O=c1cc(/C=C/c2ccccc2)oc2c1ccc1ccccc12 | inconclusive: 11.2 µM [activator, partial curve]
O=C(c1cccc(N2CCCC2=O)c1)N1CCN(c2ccccc2)CC1 | inactive
CC1=NNC(=O)C1CC(=O)N/N=C(/C)c1cccc([N+](=O)[O-])c1 (stereo not drawn) | inconclusive: 20 µM [activator, single point]
Cc1nc2ccccc2c(=O)n1NC(=O)c1ccc(C(C)(C)C)cc1 | inconclusive: 12.6 µM [activator, partial curve]
CCOC(=O)c1sc2nc(C(C)C)c3c(c2c1N)CCC3 | inactive
O=C(Nc1ccccc1)c1cc([N+](=O)[O-])ccc1Cl | inconclusive: 23.1 µM [activator, single point]
O=C(COc1ccc(Nc2ccccc2)cc1)Nc1ccncc1 | inconclusive: 28.2 µM [activator, single point]
O=C(CN1CCN(c2ccc(O)cc2)CC1)Nc1ccc(SC(F)F)cc1 | inconclusive: 11.2 µM [activator, partial curve]
CCCC1C(C(=O)OCC)=C(C)NC(C)=C1C(=O)OCC | inconclusive: 12.6 µM [activator, partial curve]

Three entries out of the list, sorted by SMILES length, smallest number first:
SMILES | Potency
Cc1ccccc1NC(=O)/C=C1\SC(=O)NC1=O | inconclusive: 10 µM [activator, partial curve]
COc1ccc(C(=O)O/N=C(\N)c2cccc(C)c2)cc1OC | inconclusive: 35.5 µM [activator, partial curve, poor fit]
Cc1ccc(C(=O)n2nc(-n3cccc3)c3c(C)cc(C)nc32)cc1 | inconclusive: 11.2 µM [activator, partial curve]
